Measured values as given in patent EP4745153A1 (Jiangsu Hengrui Pharmaceuticals Co., Ltd., priority 2023, dated 2025).

Assay: general procedure: Fmoc solid-phase peptide synthesis; Rink-amide MBHA resin, 0.54 mmole/g; HATU / 4-methylmorpholine
Conditions: whole synthesis, analytical ultra-high performance liquid chromatography and LC/MS

**Q.** With “PEPTIDE1{H.[Aib].H.G.T.F.T.S.D.L.S.I.L.L.E.K.K.A.A.Q.E.F.V.E.W.L.L.A.[dE].G.P.S.S.G.A.P.P.P.S.[am]}|PEPTIDE2{[DA18].[gGlu].[OEG].[OEG]}$PEPTIDE2,PEPTIDE1,4:R2-16:R3$$$V2.0” as the substance, how does the “final HPLC purity” value read?
**A.** The value was 91.68%.

**Q.** For “PEPTIDE1{H.[Aib].H.G.T.F.T.S.D.L.S.I.L.L.E.K.K.A.A.[Ac3c].E.F.V.E.W.L.L.A.[dE].G.P.S.S.G.A.P.P.P.S.[am]}|PEPTIDE2{[DA18].[gGlu].[OEG].[OEG]}$PEPTIDE2,PEPTIDE1,4:R2-16:R3$$$V2.0”, which “final HPLC purity” value is on record?
**A.** The value was 90.58%.

**Q.** For “PEPTIDE1{H.[Aib].H.G.T.F.T.S.D.L.S.I.L.L.E.K.K.A.A.[Ac4c].E.F.V.E.W.L.L.A.[dE].G.P.S.S.G.A.P.P.P.S.[am]}|PEPTIDE2{[DA18].[gGlu].[OEG].[OEG]}$PEPTIDE2,PEPTIDE1,4:R2-16:R3$$$V2.0”, which “final HPLC purity” value is on record?
**A.** The value was 88.49%.

**Q.** For “PEPTIDE1{H.[Aib].H.G.T.F.T.S.D.L.S.I.L.L.E.K.Q.A.A.[Ac3c].E.F.V.E.W.L.L.A.[dE].G.P.S.S.G.A.P.P.P.S.[am]}|PEPTIDE2{[DA18].[gGlu].[OEG].[OEG]}$PEPTIDE2,PEPTIDE1,4:R2-16:R3$$$V2.0”, which “final HPLC purity” value is on record?
**A.** The value was 93.74%.

**Q.** Which “final HPLC purity” value does the source give for “PEPTIDE1{H.[Aib].H.G.T.F.T.S.D.L.S.I.L.L.E.K.Q.A.A.[Ac4c].E.F.V.E.W.L.L.A.[dE].G.P.S.S.G.A.P.P.P.S.[am]}|PEPTIDE2{[DA18].[gGlu].[OEG].[OEG]}$PEPTIDE2,PEPTIDE1,4:R2-16:R3$$$V2.0” here?
**A.** Its value is 94.81%.

**Q.** Which “final HPLC purity” value does the source give for “PEPTIDE1{H.[Aib].H.G.T.F.T.S.D.Y.S.I.L.L.E.K.K.A.A.Q.E.F.V.E.W.L.L.A.G.G.P.S.S.G.A.P.P.P.S.[am]}|PEPTIDE2{[DA18].[gGlu].[OEG].[OEG]}$PEPTIDE2,PEPTIDE1,4:R2-16:R3$$$V2.0” here?
**A.** Its value is 98.03%.

**Q.** Which “final HPLC purity” value does the source give for “PEPTIDE1{H.[Aib].H.G.T.F.T.S.D.Y.S.I.L.L.E.K.K.A.A.Q.E.F.V.E.W.L.L.A.[dE].G.P.S.S.G.A.P.P.P.S.[am]}|PEPTIDE2{[DA18].[gGlu].[OEG].[OEG]}$PEPTIDE2,PEPTIDE1,4:R2-16:R3$$$V2.0” here?
**A.** Its value is 95.15%.

**Q.** For “PEPTIDE1{H.[Aib].H.G.T.F.T.S.D.Y.S.I.L.L.E.K.K.A.A.[Iva].E.F.V.E.W.L.L.A.G.G.P.S.S.G.A.P.P.P.S.[am]}|PEPTIDE2{[DA18].[gGlu].[OEG].[OEG]}$PEPTIDE2,PEPTIDE1,4:R2-16:R3$$$V2.0”, which “final HPLC purity” value is on record?
**A.** The value was 92.44%.

**Q.** With “PEPTIDE1{H.[Aib].H.G.T.F.T.S.D.Y.S.I.L.L.E.K.Q.A.A.Q.E.F.V.E.W.L.L.A.G.G.P.S.S.G.A.P.P.P.S.[am]}|PEPTIDE2{[DA18].[gGlu].[OEG].[OEG]}$PEPTIDE2,PEPTIDE1,4:R2-16:R3$$$V2.0” as the substance, how does the “final HPLC purity” value read?
**A.** The value was 93.06%.

**Q.** Which “final HPLC purity” value does the source give for “PEPTIDE1{H.[Aib].H.G.T.F.T.S.D.Y.S.I.L.L.E.K.Q.A.A.Q.E.F.V.E.W.L.L.A.[dE].G.P.S.S.G.A.P.P.P.S.[am]}|PEPTIDE2{[DA18].[gGlu].[OEG].[OEG]}$PEPTIDE2,PEPTIDE1,4:R2-16:R3$$$V2.0” here?
**A.** The value was 88.34%.

**Q.** With “PEPTIDE1{H.[Aib].H.G.T.F.T.S.D.Y.S.I.L.L.E.K.Q.A.A.[Ac3c].E.F.V.E.W.L.L.A.[dE].G.P.S.S.G.A.P.P.P.S.[am]}|PEPTIDE2{[DA18].[gGlu].[OEG].[OEG]}$PEPTIDE2,PEPTIDE1,4:R2-16:R3$$$V2.0” as the substance, how does the “final HPLC purity” value read?
**A.** The value was 92.76%.

**Q.** With “PEPTIDE1{H.[Aib].H.G.T.F.T.S.D.Y.S.I.L.L.E.K.Q.A.A.[Ac4c].E.F.V.E.W.L.L.A.[dE].G.P.S.S.G.A.P.P.P.S.[am]}|PEPTIDE2{[DA18].[gGlu].[OEG].[OEG]}$PEPTIDE2,PEPTIDE1,4:R2-16:R3$$$V2.0” as the substance, how does the “final HPLC purity” value read?
**A.** The value was 91.27%.

**Q.** Which “final HPLC purity” value does the source give for “PEPTIDE1{H.[Aib].H.G.T.F.T.S.D.Y.S.K.Y.L.E.K.K.[Aib].A.Q.E.F.V.E.W.L.L.A.G.G.P.S.S.G.A.P.P.P.S.[am]}|PEPTIDE2{[DA18].[gGlu].[OEG].[OEG]}$PEPTIDE2,PEPTIDE1,4:R2-16:R3$$$V2.0” here?
**A.** The value was 96.69%.

**Q.** For “PEPTIDE1{H.[Aib].Q.G.T.F.T.S.D.Y.S.I.L.L.E.K.K.A.A.Q.E.F.V.E.W.L.L.A.G.G.P.S.S.G.A.P.P.P.S.[am]}|PEPTIDE2{[DA18].[gGlu].[OEG].[OEG]}$PEPTIDE2,PEPTIDE1,4:R2-16:R3$$$V2.0”, which “final HPLC purity” value is on record?
**A.** Its value is 96.53%.

HELM strings list residues between dots; [ac] is acetyl, [am] amide, other brackets name non-standard units.
